# Percent effect of library compounds

Protein sequences, listed by entry. Tags and fused reporters are not part of them. Residues count along the entry.
UniProt P9WNZ1, whole entry: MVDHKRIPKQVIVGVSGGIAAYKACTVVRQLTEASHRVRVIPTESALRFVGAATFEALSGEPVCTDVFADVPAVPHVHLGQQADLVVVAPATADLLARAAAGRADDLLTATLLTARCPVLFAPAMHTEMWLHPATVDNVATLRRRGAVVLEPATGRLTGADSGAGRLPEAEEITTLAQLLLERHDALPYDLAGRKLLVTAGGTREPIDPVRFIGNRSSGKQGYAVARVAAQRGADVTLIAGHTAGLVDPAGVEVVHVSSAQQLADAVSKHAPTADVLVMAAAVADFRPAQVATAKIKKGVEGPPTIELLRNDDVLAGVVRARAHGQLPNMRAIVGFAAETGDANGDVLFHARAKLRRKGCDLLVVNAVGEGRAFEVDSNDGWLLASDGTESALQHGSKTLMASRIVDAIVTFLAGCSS
UniProt I6X8D2, whole entry: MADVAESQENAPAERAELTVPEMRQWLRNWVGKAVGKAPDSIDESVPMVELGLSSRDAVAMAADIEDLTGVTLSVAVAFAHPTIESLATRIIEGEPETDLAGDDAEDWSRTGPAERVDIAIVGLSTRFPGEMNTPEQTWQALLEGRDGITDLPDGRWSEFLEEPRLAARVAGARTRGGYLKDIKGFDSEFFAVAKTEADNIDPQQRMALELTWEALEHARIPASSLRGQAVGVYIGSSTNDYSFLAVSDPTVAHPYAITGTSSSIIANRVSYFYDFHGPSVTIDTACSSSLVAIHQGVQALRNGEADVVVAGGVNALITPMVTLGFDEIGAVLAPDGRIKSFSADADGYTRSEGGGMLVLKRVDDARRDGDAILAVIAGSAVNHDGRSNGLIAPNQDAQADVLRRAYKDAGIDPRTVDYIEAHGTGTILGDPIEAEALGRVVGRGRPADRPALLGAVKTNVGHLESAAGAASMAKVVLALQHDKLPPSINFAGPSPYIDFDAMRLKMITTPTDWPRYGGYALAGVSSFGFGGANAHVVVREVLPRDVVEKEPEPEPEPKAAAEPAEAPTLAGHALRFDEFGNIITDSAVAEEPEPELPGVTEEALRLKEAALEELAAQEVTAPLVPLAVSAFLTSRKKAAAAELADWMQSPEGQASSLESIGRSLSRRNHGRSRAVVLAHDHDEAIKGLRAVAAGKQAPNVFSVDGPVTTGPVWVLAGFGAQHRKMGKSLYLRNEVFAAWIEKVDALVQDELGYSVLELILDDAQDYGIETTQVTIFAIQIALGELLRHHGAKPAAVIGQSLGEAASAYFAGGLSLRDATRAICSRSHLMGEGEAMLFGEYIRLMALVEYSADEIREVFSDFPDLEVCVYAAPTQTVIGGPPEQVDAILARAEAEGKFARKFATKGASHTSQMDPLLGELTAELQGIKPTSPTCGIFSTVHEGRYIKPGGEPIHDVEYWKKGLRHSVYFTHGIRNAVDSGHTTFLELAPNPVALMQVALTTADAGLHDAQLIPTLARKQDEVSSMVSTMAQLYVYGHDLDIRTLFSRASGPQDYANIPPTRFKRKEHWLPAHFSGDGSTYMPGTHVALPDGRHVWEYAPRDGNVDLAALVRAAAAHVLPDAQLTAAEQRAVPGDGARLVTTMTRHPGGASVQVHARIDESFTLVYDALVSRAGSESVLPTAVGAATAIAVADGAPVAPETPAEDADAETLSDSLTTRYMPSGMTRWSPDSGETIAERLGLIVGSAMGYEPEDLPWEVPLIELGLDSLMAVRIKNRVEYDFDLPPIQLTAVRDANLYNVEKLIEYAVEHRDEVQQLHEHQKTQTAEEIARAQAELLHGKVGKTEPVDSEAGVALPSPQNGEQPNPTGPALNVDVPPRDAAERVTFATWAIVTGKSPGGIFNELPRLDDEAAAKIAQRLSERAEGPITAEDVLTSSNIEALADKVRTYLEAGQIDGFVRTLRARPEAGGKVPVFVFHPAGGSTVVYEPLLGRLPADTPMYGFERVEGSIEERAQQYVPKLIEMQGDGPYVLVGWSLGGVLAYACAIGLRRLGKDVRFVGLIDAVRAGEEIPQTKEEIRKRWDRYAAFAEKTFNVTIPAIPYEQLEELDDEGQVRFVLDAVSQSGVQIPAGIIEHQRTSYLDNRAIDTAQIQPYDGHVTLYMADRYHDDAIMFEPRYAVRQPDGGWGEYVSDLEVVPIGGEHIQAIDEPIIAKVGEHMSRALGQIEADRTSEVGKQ
UniProt P9WPC5, whole entry: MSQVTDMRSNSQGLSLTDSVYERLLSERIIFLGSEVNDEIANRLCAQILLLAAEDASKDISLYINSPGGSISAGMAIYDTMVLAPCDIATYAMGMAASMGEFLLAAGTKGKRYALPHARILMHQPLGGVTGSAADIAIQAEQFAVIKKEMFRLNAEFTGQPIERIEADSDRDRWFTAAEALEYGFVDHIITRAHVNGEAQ
UniProt P9WPC3, whole entry partner: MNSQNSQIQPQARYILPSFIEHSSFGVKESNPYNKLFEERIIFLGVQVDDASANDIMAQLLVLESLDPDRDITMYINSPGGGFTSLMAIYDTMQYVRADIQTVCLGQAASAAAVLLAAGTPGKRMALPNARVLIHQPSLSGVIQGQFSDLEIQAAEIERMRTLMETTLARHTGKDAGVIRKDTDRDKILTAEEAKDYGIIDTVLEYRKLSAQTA
UniProt A4I591, 1-473: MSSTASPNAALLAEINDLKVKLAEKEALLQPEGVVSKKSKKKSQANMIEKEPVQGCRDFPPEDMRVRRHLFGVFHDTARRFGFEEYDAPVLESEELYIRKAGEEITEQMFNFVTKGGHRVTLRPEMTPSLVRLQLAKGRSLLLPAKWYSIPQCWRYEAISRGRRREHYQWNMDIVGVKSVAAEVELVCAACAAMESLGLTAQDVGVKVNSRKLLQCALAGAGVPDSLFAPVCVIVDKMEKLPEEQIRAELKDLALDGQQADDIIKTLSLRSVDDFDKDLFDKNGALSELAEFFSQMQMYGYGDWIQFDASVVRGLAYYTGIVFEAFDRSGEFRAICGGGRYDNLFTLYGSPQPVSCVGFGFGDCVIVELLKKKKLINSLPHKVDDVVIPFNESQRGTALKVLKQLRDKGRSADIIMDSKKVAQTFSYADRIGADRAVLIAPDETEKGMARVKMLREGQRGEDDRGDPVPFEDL
UniProt P9WFT3, whole entry: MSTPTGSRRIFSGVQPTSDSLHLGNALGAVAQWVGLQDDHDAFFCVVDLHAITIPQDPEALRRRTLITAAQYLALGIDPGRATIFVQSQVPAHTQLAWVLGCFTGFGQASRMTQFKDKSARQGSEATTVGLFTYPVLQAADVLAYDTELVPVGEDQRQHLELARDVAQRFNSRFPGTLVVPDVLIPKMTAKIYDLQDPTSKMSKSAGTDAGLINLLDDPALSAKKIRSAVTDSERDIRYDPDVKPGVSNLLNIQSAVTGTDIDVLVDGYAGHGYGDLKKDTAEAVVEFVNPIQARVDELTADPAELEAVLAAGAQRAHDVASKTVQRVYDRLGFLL

The values are deposited in ChEMBL (CHEMBL3988442, “University of Dundee, Small-Polar-MMV Screening Library” (2021)).

CoaBC: 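Enzyme assay of CoaBC with a phosphate dye (Biomol Green) read at 650 nm. Target: Coenzyme A biosynthesis protein CoaBC, Mycobacterium tuberculosis (UniProt P9WNZ1). Concentration: 30 µM. Higher reads as stronger inhibition, judged from the few compounds that gave an IC50. Most strong results did not repeat in a second test. About 67,000 compounds were tested under these conditions; 0.06% (about 40) showed 50% or more at least once.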
Pks13 thioesterase: 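Polyketide synthase Pks13, Mycobacterium tuberculosis (UniProt I6X8D2). Enzyme assay of the thioesterase domain of polyketide synthase 13; the read-out is not stated. Tested at 30 µM. The record gives no direction; the compounds picked for IC50 retests had high values, so higher reads as stronger inhibition. About 67,000 compounds were tested under these conditions; 0.46% (about 300) showed 50% or more at least once.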
ClpP1P2: 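Protease assay of ClpP1P2, read by the AMC dye that it sets free. Target: ClpP1P2, Mycobacterium tuberculosis (UniProt P9WPC5 and UniProt P9WPC3). Concentration: 50 µM. Higher reads as stronger inhibition, judged from the few compounds that gave an IC50. Most other retested compounds had strongly negative values. Size under these conditions: about 69,000 compounds, about 10 of them at 50% or above in at least one test.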
Toxoplasma: 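Assay of Toxoplasma gondii numbers, read through their beta-galactosidase reporter with a colour substrate. Compounds at 10 µM. The record gives no direction; the compounds picked for IC50 retests had high values, so higher reads as fewer parasites. About 67,000 compounds were tested under these conditions; 0.38% (about 260) showed 50% or more at least once.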
LiHisRS: 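Enzyme assay of histidyl-tRNA synthetase; the read-out is not stated. Target: Histidine-tRNA ligase, Leishmania infantum (UniProt A4I591). Tested at 30 µM. Direction is inferred from retests: higher values go with stronger inhibition. The assay is labelled LdHisRS but filed under L. infantum. Of about 69,000 compounds tested this way, about 410 (0.6%) reached 50% or more in at least one test.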
MtTrpRS: 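Enzyme assay of tryptophanyl-tRNA synthetase; the read-out is not stated. Target: Tryptophan-tRNA ligase, Mycobacterium tuberculosis (UniProt P9WFT3). Compounds at 10 µM. Higher most likely means stronger inhibition; the record gives no direction and few retests gave an IC50. Of about 65,000 compounds tested this way, about 64 (0.098%) reached 50% or more in at least one test.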

Results are given as percent effect. The record does not define 0% and 100%; most values in the screen are far below 50% and negative numbers occur (in some assays of this library far below -100). Compounds were drawn at random from those tested, without regard to their results. A dash means the value is not listed here; it may have been measured.

compound	CoaBC	Pks13 thioesterase	ClpP1P2	Toxoplasma	LiHisRS	MtTrpRS
Cn1c(CN2CCCC(c3noc(C4CC4)n3)C2)cc(=O)n(C)c1=O (stereo not given)	3.394	-11.79	-28.35	0.1797	13.79	-5.781
Cc1nc(C)c(CN2CCC(N(C)Cc3nnc(C4CC4)o3)C2)s1 (stereo not given)	3.823	-13.06	11.41	-13.51	15.38	4.206
c1ccc(CN2CCCC(CNc3ncnc4c3CCNCC4)C2)cc1 (stereo not given)	-12.4	-6.236	-15.47	28.49	32.65	8.957
Cc1nc(NCc2scnc2-c2ccccc2)cc(C2CCNCC2)n1	-0.3817	-7.831	-13.29	-6.799	9.756	1.336
COc1cccc(-c2nc(C)c(C(=O)N[C@@H](CCSC)C(=O)O)s2)c1	3.283	-8.25	-6.41	-1.597	7.895	-18.98
Cc1ccsc1C(O)CNC(=O)Cc1ccc(F)cc1 (stereo not given)	-2.81	-9.247	-7.061	-23.63	23.38	2.719
CC(C)C(C(=O)N1CCC(Nc2cccnn2)CC1)n1cncn1 (stereo not given)	2.017	-1.299	-7.771	-2.814	0	-0.07825
CC(C)CN1Cc2cccc(NC(=O)Cc3ccon3)c2C1	0.4914	-8.782	-17.72	-35.8	4.301	2.692
CN1CCN(C(=O)c2nnc3ccc(Cl)cc3n2)CC1	3.738	9.518	-1.239	9.61	27.43	-1.643
CN(C)S(=O)(=O)N1CCC(Cn2cccn2)CC1	-13.87	-19.22	11.47	2.535	5.983	-1.201
Cc1oncc1C(=O)N1CCC(O)(CN2CCOCC2)C(C)(C)C1 (stereo not given)	3.736	-30.41	6.171	1.081	22.86	-1.165
COc1cc(Cl)c(C)cc1-n1nnc(C(=O)O)c1C	1.631	-5.961	-21.8	-26.52	6.78	-0.8675
N#Cc1cccc(N2CCCC3(CCC(=O)N(C4CCCC4)C3)C2)n1 (stereo not given)	2.81	-31.73	-177.5	0.833	34.69	4.258
CNc1cc(C2CCCN2Cc2ccc(OCC(=O)O)cc2)ccn1 (stereo not given)	0.1239	-6.862	-14.29	-28.32	6	-
CCc1nn(C)c(Cl)c1CN1CCN(c2nc(C(N)=O)cs2)CC1	7.419	-3.451	4.987	2.497	17.11	-3.931
CCCc1ccc(C(=O)N2CCc3c(nc(C)nc3N(C)C)C2)cc1	9.709	6.782	4.345	0.4735	28.57	-0.144
O=C(O)c1cccc(N2CCC(Oc3cccc(F)c3)CC2)n1	3.474	-7.614	7.041	-11.62	10.64	3.617
CCc1nc(C2CCCN(C(=O)c3ccc(O)nc3)C2)no1 (stereo not given)	0.5222	-17.06	-26.26	14.37	2.655	4.765
CCn1ccc(CNC(=O)c2cc(OC)cc(OC)c2)n1	-0.2551	-29.66	-23.59	15.47	6.173	2.292
CC(=O)N(C)CC(=O)Nc1cnc(-n2ccnc2C)nc1	-0.3764	-8.491	-5.815	-7.097	-5.085	1.656
O=C(O)C(F)(F)F.O=C1COC2(COCCN(Cc3ccsc3)C2)CN1c1ccc(F)cc1 (stereo not given)	-	-	-	-13.43	-	-
COc1cccc(CN(C)Cc2c(C)noc2C)c1OC	-12.72	6.447	-1.605	25.24	6.667	-3.92
Cc1cnc(N2CCn3c(CN4CCOCC4)nnc3C2)nc1	-0.4831	-9.386	2.596	-	7.071	2.182
CC(O)CN1CCN(C(=O)CCOC(C)C)CC1 (stereo not given)	2.724	8.876	5.08	-7.5	8.108	-6.838
CNC(=O)c1n[nH]c2c1C(c1cccc3[nH]ccc13)CC(=O)N2 (stereo not given)	2.213	-13.78	-6.336	-1.791	17.95	-0.09311
Cc1cc(C[C@@H]2COC[C@H]2NCc2ccc(Cl)c(Cl)c2)on1	10.53	2.48	-2.439	-	16	-
CCOC(C)c1noc(CN2CCNCC2)n1 (stereo not given)	-1.932	-9.327	-0.2406	-1.42	5.051	-2.909
O=C(NCCc1coc(-c2ccc(F)cc2)n1)NC1CCC(O)CC1 (stereo not given)	-5.346	-17.99	-5.005	11.83	28.38	-0.5912
Cc1nc(C2CCCN2C(=O)COc2ccccc2)ncc1C(N)=O (stereo not given)	-0.3717	-18.71	-2.331	1.893	2	-
Cc1ccc(N(C)[C@@H]2CC[C@@H]3CN(C(=O)C4CCOCC4)C[C@@H]32)nn1	15.15	-2.522	-4.592	-	11.35	-6.167
O=C(Nc1ccccn1)C1CCN(Cc2cccc3c2OCCO3)CC1	8.01	5.066	20.78	28.02	2.381	-5.616
O=C(Cc1cc2c(cc1Cl)OCCO2)N1CC[C@H](CO)[C@H](O)C1	4.545	-34.16	-1.393	3.018	5.333	-2.611
COc1c(C)cnc(CN(C)C2CCOC3(CCOCC3)C2)c1C (stereo not given)	1.908	-0.3015	2.84	13.1	12.2	1.188
Cc1cccc(-c2c[nH]c(C3CCCN3C(=O)c3cc(C)n[nH]3)n2)c1 (stereo not given)	2.871	-35.01	1.72	8.239	10	0.4854
Cc1ccc(F)cc1C(=O)N1CCN(S(C)(=O)=O)[C@@H](C)C1	1.665	-4.396	0.416	0.2429	4.938	1.414
CCNc1cc2c(nn1)CCN(C(=O)c1ccc(NC3CC3)nc1)C2	-2.128	-1.315	0.6993	-12.42	10.4	5.189

Some entries from above, unchanged:

O=C(Nc1ccccn1)C1CCN(Cc2cccc3c2OCCO3)CC1 gave CoaBC: 8.01%; Pks13 thioesterase: 5.066%; ClpP1P2: 20.78%; Toxoplasma: 28.02%; LiHisRS: 2.381%; MtTrpRS: -5.616%.
O=C(O)c1cccc(N2CCC(Oc3cccc(F)c3)CC2)n1 gave CoaBC: 3.474%; Pks13 thioesterase: -7.614%; ClpP1P2: 7.041%; Toxoplasma: -11.62%; LiHisRS: 10.64%; MtTrpRS: 3.617%.
Cc1nc(NCc2scnc2-c2ccccc2)cc(C2CCNCC2)n1 gave CoaBC: -0.3817%; Pks13 thioesterase: -7.831%; ClpP1P2: -13.29%; Toxoplasma: -6.799%; LiHisRS: 9.756%; MtTrpRS: 1.336%.